This passage reports binding results from paper PMC8278082.

These are yes or no findings as the source states them, for the method shown. Binding seen in cells or lysates may run through a third protein. Some results given as binding are weak or reduced against the parent protein; the word gives no strength. For some assays here: Tags and fused reporters may be left off the sequences shown.

In experiment [1] the target is T1, IκB kinase α (IKKα), endogenous (human (endogenous in CAL27 and SCC15)), O15111.
T1 chain: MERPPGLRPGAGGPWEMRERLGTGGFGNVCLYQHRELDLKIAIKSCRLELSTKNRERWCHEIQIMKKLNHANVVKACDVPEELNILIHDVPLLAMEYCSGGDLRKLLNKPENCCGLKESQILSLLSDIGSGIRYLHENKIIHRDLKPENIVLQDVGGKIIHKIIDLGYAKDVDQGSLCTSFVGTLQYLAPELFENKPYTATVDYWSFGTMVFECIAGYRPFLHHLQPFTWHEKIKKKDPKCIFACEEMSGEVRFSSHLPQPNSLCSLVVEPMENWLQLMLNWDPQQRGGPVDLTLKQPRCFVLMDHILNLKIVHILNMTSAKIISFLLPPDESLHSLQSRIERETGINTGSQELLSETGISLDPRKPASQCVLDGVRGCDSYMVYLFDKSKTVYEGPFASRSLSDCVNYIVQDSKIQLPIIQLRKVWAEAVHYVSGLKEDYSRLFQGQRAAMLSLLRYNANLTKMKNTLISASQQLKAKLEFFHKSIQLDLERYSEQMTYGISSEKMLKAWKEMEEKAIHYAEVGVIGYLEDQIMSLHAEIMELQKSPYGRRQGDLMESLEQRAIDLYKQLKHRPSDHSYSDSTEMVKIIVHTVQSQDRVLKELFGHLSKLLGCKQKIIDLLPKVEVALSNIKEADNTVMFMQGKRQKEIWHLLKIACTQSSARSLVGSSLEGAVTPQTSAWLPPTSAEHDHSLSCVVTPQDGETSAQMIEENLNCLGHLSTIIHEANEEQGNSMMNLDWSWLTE
Description: co-IP; endogenous proteins in CAL27 or SCC15 lysates (weak-potency RIPA buffer), pre-cleared, antibody and protein A/G beads overnight at 4°C, Western blot; results and legend say anti-IKKα antibody, methods say anti-Naa10p or control IgG. As to conditions: remark: other sources report otherwise.

A further experiment concerns the target T2, GST-Naa10p, P41227.
T2 chain: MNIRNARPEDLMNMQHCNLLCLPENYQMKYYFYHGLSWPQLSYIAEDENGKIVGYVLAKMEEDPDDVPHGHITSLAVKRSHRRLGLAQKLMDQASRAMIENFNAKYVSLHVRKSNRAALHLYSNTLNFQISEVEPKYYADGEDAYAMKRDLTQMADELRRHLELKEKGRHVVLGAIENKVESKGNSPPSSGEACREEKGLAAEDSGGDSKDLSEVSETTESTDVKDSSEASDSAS
Description: pull-down; GST fusion protein on GSH beads incubated with lysates of CAL27 cells transfected with His-IKKα, 4°C, 12 hours; Western blot; only the target purified. As to conditions: remark: other sources report otherwise.

B1: N-α-acetyltransferase 10 protein (Naa10p), endogenous, P41227 1-235 (protein)
chain: T2 chain
Regarding B1, the binding entry in experiment [1] is “binds”.

B2: His-IKKα, O15111 1-745 (protein)
chain: T1 chain
As for B2, the binding result with GST-Naa10p, P41227 is on record as “binds”.
